Assay results published in article PMC7949125.
No constants are given. Whether binding was seen depends on the method and setting. In cells and extracts the contact can be indirect. Some entries that bind do so weakly or less than the wild type.

Sequences of proteins named here, by UniProt entry; tags and fusion partners are left off. Residues count along the entry.
UniProt P36544, residues 23-502: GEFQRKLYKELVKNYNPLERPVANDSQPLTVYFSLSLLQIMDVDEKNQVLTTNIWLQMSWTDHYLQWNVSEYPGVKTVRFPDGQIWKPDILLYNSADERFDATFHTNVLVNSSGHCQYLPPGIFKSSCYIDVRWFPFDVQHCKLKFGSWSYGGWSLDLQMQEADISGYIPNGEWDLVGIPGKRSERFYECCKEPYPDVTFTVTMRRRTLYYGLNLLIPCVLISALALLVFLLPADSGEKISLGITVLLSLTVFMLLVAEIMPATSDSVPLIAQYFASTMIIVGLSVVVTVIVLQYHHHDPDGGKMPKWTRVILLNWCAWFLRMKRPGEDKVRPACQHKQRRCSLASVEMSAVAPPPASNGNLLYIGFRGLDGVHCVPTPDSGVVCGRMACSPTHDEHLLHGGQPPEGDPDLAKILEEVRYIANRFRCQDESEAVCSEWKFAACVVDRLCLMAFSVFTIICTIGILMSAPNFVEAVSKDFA
UniProt Q494W8: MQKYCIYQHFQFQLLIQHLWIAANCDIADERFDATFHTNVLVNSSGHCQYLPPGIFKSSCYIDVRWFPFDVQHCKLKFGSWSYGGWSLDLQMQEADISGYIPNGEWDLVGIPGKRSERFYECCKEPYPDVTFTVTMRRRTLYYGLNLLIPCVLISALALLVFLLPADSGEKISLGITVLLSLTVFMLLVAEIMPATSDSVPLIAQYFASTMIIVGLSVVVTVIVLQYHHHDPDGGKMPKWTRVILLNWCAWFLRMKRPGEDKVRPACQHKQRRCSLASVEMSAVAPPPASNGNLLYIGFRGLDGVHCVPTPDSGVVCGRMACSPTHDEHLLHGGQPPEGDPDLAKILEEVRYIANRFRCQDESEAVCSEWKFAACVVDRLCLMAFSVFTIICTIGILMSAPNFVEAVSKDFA

How the values were obtained:
[1] = biological target: α7-Cherry (α7 nicotinic acetylcholine receptor subunit tagged with Cherry) (human) (UniProt P36544); experiment: FRET or BRET; acceptor photobleaching (561 nm laser) on a confocal microscope; SH-SY5Y cells nucleofected with the two constructs at a 1:1 ratio, fixed 48 h after transfection; GFP donor, Cherry acceptor; FRET efficiency = 1 - (Dpre/Dpost)
[2] = biological target: α7-GFP (α7 nicotinic acetylcholine receptor subunit tagged with GFP) (human) (UniProt P36544); experiment: as above

binding [1] | binding [2] | Substance
binds |  | dupα7-GFP (partial duplicated isoform of the human α7 nicotinic subunit tagged with GFP) (from UniProt Q494W8 1-412)
 | binds | dupα7-Cherry (partial duplicated isoform of the human α7 nicotinic subunit tagged with Cherry) (from UniProt Q494W8 1-412)
